# Results taken from PubChem BioAssay AID504834 (National Center for Advancing Translational Sciences (NCATS), 2011).
# The whole screen tested about 320,000 compounds, of which about 22,000 (6.9%) were called active. This list was built around the results that the source calls inconclusive (neither active nor inactive); the mix of calls is not that of the screen. Calls follow the shape of the dose curve; as a rule, active = well fitted inhibition curve with a large enough effect; inconclusive = small, poorly fitted or top-dose-only effect, or another doubt; inactive = no such curve, though single readings can be large or run the other way. A potency beside an inconclusive call is a rough fit, not a confirmed value.
# Assay: Primary qHTS for delayed death inhibitors of the malarial parasite plastid, 96 hour incubation
# Details: P. falciparum luciferase reporter growth; series mostly up to 28.7 µM
# How it was run: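 Luminescence readout: decreased luciferase signal marks inhibited growth of reporter-expressing P. falciparum in infected red cells (2% hematocrit, 0.05% parasitemia final), exposed to compound two generations (96 h, 37 C, 5% CO2).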
# % is scaled to controls: 0 for no effect and ±100 for the full control effect; potency is read from the fitted curve at half-maximal effect.
SMILES,Potency,"activity change, negative = inhibition"
Cc1cc(C)n(-c2ccc(C(=O)OCC(=O)N(CC(C)C)C3CCS(=O)(=O)C3)cc2)n1 (stereo unspecified),"inconclusive: 0.415 µM [inhibitor, partial curve, poor fit]",
CCCC(=O)Nc1ccc(Cl)c(NC(=S)NC(=O)c2ccco2)c1,inactive,
Cc1cc(C(=O)Nc2ccc(F)cc2F)on1,inactive,
CCOC(=O)c1sc2nc(C)nc(SC(C)C(=O)N(C)c3ccccc3)c2c1C (stereo unspecified),active: 9.28 µM,
O=C(CN1CCC(n2nnc3cc(F)ccc32)CC1)Nc1ccccc1N1CCOCC1,inactive,
Cn1c(CSc2nc3ccccc3s2)nnc1SCC(=O)NCCN1CCOCC1,inactive,
COc1ccc(CNC(=O)N2CCN(c3cccc(C)c3C)CC2)cc1OC,"inconclusive: 10.4 µM [inhibitor, partial curve, poor fit]",
CCCCNC(=O)C1C2C=CC3(CN(Cc4ccc(C)cc4)C(=O)C13)O2 (stereo unspecified),active: 10.4 µM,
CC(=O)c1c(C)[nH]c(C(=O)OCC(=O)N2c3ccccc3NC(=O)C2(C)C)c1C,"inconclusive: 9.28 µM [inhibitor, partial curve, poor fit]",
O=C(CC12CC3CC(CC(C3)C1)C2)NCC(=O)N1CCc2ccccc2C1,"inconclusive: 18.5 µM [inhibitor, single point]",
Cc1ccccc1C(=O)O/N=C(\c1ccccc1)c1ccccn1,inactive,
Cc1cc(C)n(C(=O)CN2C(=O)COc3ccccc32)n1,"inconclusive: 7.38 µM [inhibitor, partial curve]",
O=C(c1cccc(C(F)(F)F)c1)C1CCCN(C(=O)/C=C/c2cnc[nH]2)C1 (stereo unspecified),inactive,
Cc1cc(/C=C2\C(=O)NC(=O)N(c3ccc(F)cc3)C2=O)c(C)n1-c1cccc(C(=O)O)c1,"inconclusive: 11.7 µM [inhibitor, single point]",
CN(C)c1ccc(-c2nnc(-c3cccnc3)o2)cc1,inactive,
CCCC(c1nnnn1Cc1ccccc1)N1CCN(c2ccccc2OC)CC1 (stereo unspecified),"inconclusive: 11.7 µM [inhibitor, single point]",
CC1CCCCC1N=C1NC(C)(C)CS1 (stereo unspecified),"inconclusive: 10.4 µM [inhibitor, single point]",
CCn1c(SCC(=O)NC2CCCCC2)nnc1-c1ccccc1F,"inconclusive: 18.5 µM [inhibitor, single point]",
CC1=CCC(C(=O)N/N=C/c2cccs2)C(c2ccc(F)cc2)C1 (stereo unspecified),"inconclusive: 0.0037 µM [inhibitor, full curve, poor fit]",
O=C(O)CN(CCN(CC(=O)O)CC(=O)O)CCN(CC(=O)O)CC(=O)O,"inconclusive: 2.69 µM [inhibitor, full curve]",
CC(C)(CO)Cc1cc(C(C)(C)C)c(O)c(C(C)(C)C)c1,"inconclusive: 18.5 µM [inhibitor, single point]",
COc1ccc(NC(=O)CSc2nc3ccccc3cc2Cc2ccccc2)cc1,"inconclusive: 0.262 µM [inhibitor, full curve]",
Cc1nc(SCc2ccccc2)c([N+](=O)[O-])[nH]1,inactive,

# Quoted at random: two entries already listed
SMILES,Potency,"activity change, negative = inhibition"
CCCC(c1nnnn1Cc1ccccc1)N1CCN(c2ccccc2OC)CC1 (stereo unspecified),"inconclusive: 11.7 µM [inhibitor, single point]",
Cn1c(CSc2nc3ccccc3s2)nnc1SCC(=O)NCCN1CCOCC1,inactive,

# Next entries:

SMILES,Potency,"activity change, negative = inhibition"
CSc1ccccc1NC(=S)NC1CCCC1,"inconclusive: 14.7 µM [inhibitor, single point]",
C=CCn1c(=O)c2c3c(sc2n2c(Nc4ccc(OC)cc4)nnc12)CCCC3,"inconclusive: 20.8 µM [inhibitor, partial curve, poor fit]",
CCn1c(CNC(=O)c2ccco2)nnc1SCC(=O)c1ccc(F)cc1,"inconclusive: 3.29 µM [inhibitor, partial curve, poor fit]",
O=C(NCc1ccccc1)C1=C[C@@H](c2ccc(C(F)(F)F)cc2)C[C@@H](OCc2ccc(CO)cc2)O1,active: 4.65 µM,
COc1ccc(NS(=O)(=O)c2cccc(C(=O)NNC(=O)CNC(=O)c3ccccc3F)c2)cc1,inactive,
CN1CCC(NC(=O)c2cc(-c3cccc(Br)c3)nc3ccccc23)CC1,inactive,
CC(C)N(Cc1nc(-c2ccccc2)no1)C(=O)C(Cl)(Cl)Cl,,inactive: -31.5% [at 1.15 µM]
CCC(NC(=O)CCCc1ccccc1)c1ccccc1 (stereo unspecified),"inconclusive: 13.1 µM [inhibitor, partial curve, poor fit]",
COc1cc(/C=C/CO)cc(OC)c1OC/C=C(\C)CCC=C(C)C,"inconclusive: 18.5 µM [inhibitor, single point]",
CS(=O)(=O)N(CC(=O)N1CCCCCC1)c1cccc(Cl)c1Cl,"inconclusive: 10.4 µM [inhibitor, single point]",
Cc1noc(C)c1C(=O)Nc1cccc(S(=O)(=O)N2CCOCC2)c1,inactive,
O=C(Nc1ccc(N2CCN(C(=O)c3ccc(Cl)cc3)CC2)cc1)c1ccc([N+](=O)[O-])o1,"inconclusive: 0.329 µM [inhibitor, partial curve, poor fit]",
Cc1cc(=O)[nH]c(N/N=C/c2ccc(F)cc2)n1,inactive,
CCCCCCCNC(=O)C1(CC2CC(c3cccc(Br)c3)=NO2)CCN(C(=O)C2CCCC2)CC1 (stereo unspecified),active: 9.28 µM,
COc1nc(N2CCOCC2)nc(C)c1[N+](=O)[O-],active: 11.7 µM,
O=C(O)c1cc(O)ccc1N=Nc1ccccc1,inactive,
COc1ccc(S(=O)(=O)Nc2cccc(F)c2)cc1C,"inconclusive: 18.5 µM [inhibitor, single point]",
CCc1nnc(NS(=O)(=O)c2ccc(N=CC3=C(O)CC(C)(C)CC3=O)cc2)s1,"inconclusive: 18.5 µM [inhibitor, single point]",
O=C(CCCN1C(=O)/C(=C\c2ccco2)SC1=S)Nc1ccc2ccccc2c1,"inconclusive: 1.85 µM [inhibitor, single point]",
Cc1nnc(N2CCCC(C(=O)Nc3cc(F)ccc3F)C2)c2nn(-c3ccccc3)c(C)c12 (stereo unspecified),"inconclusive: 18.5 µM [inhibitor, single point]",
COc1ccc(C(=O)C2CCCN(C(=O)C3=CCCC3)C2)cc1OC (stereo unspecified),"inconclusive: 18.5 µM [inhibitor, single point]",
CC(=O)CCC(C)=O,inactive,
Cc1ccc(CC(=O)OC(C)C(=O)NC2CCCCC2C)cc1C (stereo unspecified),"inconclusive: 7.38 µM [inhibitor, partial curve, poor fit]",
